This is an account of results in PubChem BioAssay AID2685 (National Center for Advancing Translational Sciences (NCATS), 2010).

Molecules are shown by their SMILES. Some of the results follow. Shown are side measurements of this screen, not its main read-out; they come without a call. Most of these compounds were active or inconclusive in the main read-out, so they are no random draw. Potencies come from curve fits of mixed quality, noted in brackets.

A short description of the assay: qHTS Assay for Lipid Storage Modulators in Drosophila S3 Cells.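 For cell number change: cells counted by Cell Tracker Red CMTPX staining in the red channel.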 As to conditions: BODIPY lipid droplet fluorescence, 18-24 h; for cell number change: measured here: cell count max response, cells fed with added oleic acid. Put shortly:
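Laser-scanning cytometry quantifies lipid droplet accumulation (500–530 nm total intensity; droplet/cell object ratio) in oleic acid-fed (400 uM added) Drosophila S3 cells treated with a concentration series. 20 uM Triacsin C defined 100% inhibition.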
For orientation: In qHTS, concentration-response curves come from the screen itself.

[1] abbreviates: measured here: lipid fluorescence (Fed channel) AC50, cells fed with added oleic acid.
The mark [2] stands for this setting: measured here: cell number channel AC50, cells fed with added oleic acid.

What is called AC50 is the concentration at which the activity in the assay is half-maximal. A low value points to greater potency. For the compound `CN(Cc1c(C(=O)N/N=C/c2ccccc2)nnn1-c1nonc1N)c1ccccc1`, the AC50 under setting [1] was 0.231 µM [falling, full curve, poor fit].

As to `COc1ccc(-n2c(C)cc(C)c(C(C)=O)c2=S)cc1`, the cell number change came out at 13.1%. Besides, the AC50 under setting [1] was 7.31 µM [falling, partial curve, poor fit].

Consider `CCC(C(=O)NCCN1CCOCC1)n1nc(C)n2c(cc3sccc32)c1=O` (stereo unspecified), for which the cell number change is -9.73%. For the same compound, the AC50 under setting [1] was 0.58 µM [rising, single point].

Consider `O=C(COC(=O)C1CCN(S(=O)(=O)c2ccc3c(c2)OCCO3)CC1)NC1CCS(=O)(=O)C1` (stereo unspecified), for which the cell number change was found to be 6.14%. For the same compound, the AC50 under setting [1] was 0.231 µM [falling, full curve].

`COc1ccc(OC(=O)c2cn(C)nc2C(F)(F)F)cc1`: the cell number change is -11.8%. Besides, under setting [1], the AC50 is 3.66 µM [falling, single point].

Regarding `CCOc1ccc(OCCSc2nc3ccccc3o2)cc1`, the cell number change was -5.58%. For the same compound, under setting [1], the half-maximal activity concentration (AC50) is 6.51 µM [falling, single point].

For `O=C(O)c1cc(NN=C2CCN(Cc3ccccc3)CC2)ccc1Cl`, the cell number change stood at 11.8%.

On to `Cc1ccc(-c2csc3nc4c5ccccc5c(NCCCN(C)C)nn4c(=O)c23)cc1`, for which the cell number change was -30.3%. Moreover, the AC50 under setting [2] was 0.00517 µM [falling, full curve, poor fit].

Turning to `O=C(Nc1nc2ccccc2[nH]1)Nc1ccccc1F`, the cell number change was 9.66%. For the same compound, under setting [1], the AC50 was 6.51 µM [rising, single point].

As for `Cc1ccc(OCCNC(=O)c2ccc(C)cc2)cc1`, the cell number change amounted to 11.3%. In addition, the AC50 under setting [1] is 18.4 µM [rising, single point].

Consider `COc1ccc(N(C)S(=O)(=O)c2cccc(C(=O)Nc3nc4ccccc4[nH]3)c2)cc1`, for which, under setting [1], the concentration at half-maximal activity (AC50) was 3.26 µM [rising, single point].

Regarding `N#Cc1cn(CC(=O)N2CCCC2)c2ccccc12`, the AC50 under setting [2] was 2.31 µM [falling, partial curve, poor fit].

For the compound `CCCn1c(C)cc(C(=O)COC(=O)c2ccc[nH]c2=O)c1C`, the cell number change was -5.02%. Moreover, the AC50 under setting [1] is 6.51 µM [falling, single point].

In the case of `CN(C)S(=O)(=O)N1CCC(CCCC2CCN(S(=O)(=O)N(C)C)CC2)CC1`, the cell number change was -33.7%.

On to `Cc1ccccc1N(C(=O)Cc1cccs1)C(C(=O)NC1CCCCC1)c1cn(C)nc1C` (stereo unspecified), for which the cell number change was found to be 6.67%. Further, the AC50 under setting [2] is 4.61 µM [falling, single point]. Besides, the AC50 under setting [1] was 23.1 µM [falling, single point].

`CC(C)CCNc1nc2c(c(=O)n(Cc3cccc(F)c3)c(=O)n2C)n1C`: the cell number change is 7.64%. For the same compound, under setting [2], the half-maximal activity concentration (AC50) was 6.51 µM [rising, single point]. Under setting [1], the AC50 was 1.03 µM [rising, partial curve].

Turning to `Cc1csc(NC(=O)NC2(C(F)(F)F)Oc3ccccc3O2)n1`, under setting [1], the AC50 was 0.092 µM [falling, full curve, poor fit].

Take `O=C(/C=C/c1ccccc1)c1ccccc1`: the cell number change was 9.27%. Besides, under setting [1], the AC50 is 29.1 µM [falling, single point].

Regarding `Nc1cnc(CNc2ccccc2Cl)cn1`, the cell number change came out at 18.8%. Besides, the AC50 under setting [1] was 0.00461 µM [falling, full curve, poor fit].

Take `Cc1cccc(-n2c(SCC(=O)NCC3CCCO3)nc3ccccc3c2=O)c1C` (stereo unspecified): the cell number change is 4.6%.

As to `O=C1/C(=C/c2ccc(O)c([N+](=O)[O-])c2)SC(=S)N1Cc1ccccc1`, the cell number change is -15.9%. In addition, under setting [1], the AC50 is 0.58 µM [falling, full curve].

`O=C(O)CCCn1cc(NC(=O)COc2cccc(Cl)c2)cn1`: the cell number change worked out at 1.66%. In addition, under setting [1], the AC50 is 29.1 µM [rising, single point].

As for `CCCn1nnnc1SCC(=O)NCc1ccc(OC)cc1`, the cell number change was 1.55%. Further, under setting [1], the AC50 was 32.6 µM [falling, single point].

Regarding `Cc1ccccc1N1C(=O)c2ccccc2C1Nc1cccnc1` (stereo unspecified), the cell number change was -16%. The AC50 under setting [1] is 23.1 µM [falling, single point].

`O=C(CCCl)Nc1nnc(SCC(=O)NC2CCCC2)s1`: the cell number change is 16.7%. The AC50 under setting [1] is 1.3 µM [falling, partial curve].

Take `COc1ccc(/C=C/C(=O)NC(=S)Nc2ccc(C(=O)O)cc2)cc1`: the cell number change is -10.1%.

On to `CCCCC1(C)OC(=O)C(=Cc2ccc(N(C)C)cc2)C(=O)O1` (stereo unspecified), for which the cell number change came out at 0.486%. In addition, the AC50 under setting [1] is 6.51 µM [rising, single point].

In the case of `CC(C)(CNC(=O)Cc1ccc(Cl)cc1Cl)N1CCOCC1`, the cell number change is 10.4%. Under setting [1], the AC50 is 23.1 µM [rising, partial curve, poor fit].

`CCOC(=O)c1ccc(NC(=S)N2CCC(O)CC2)cc1`: the cell number change is 22.2%.

Regarding `O=C(CCN1C(=O)/C(=C/c2ccccc2)SC1=S)NC1CCS(=O)(=O)C1` (stereo unspecified), the cell number change is 2.36%.

For the compound `COc1ccc(S(=O)(=O)N2CCC(C(=O)NCCC3=CCCCC3)CC2)cc1OC`, the cell number change was -11.3%. Moreover, the AC50 under setting [2] was 0.0651 µM [falling, full curve]. In addition, the AC50 under setting [1] was 0.291 µM [falling, full curve].

Take `CC1(C)C(N(O)C(=O)Nc2ccccc2)N(c2cccc(Cl)c2)C(=O)N1O` (stereo unspecified): the cell number change came to 3.16%. Also, the AC50 under setting [1] was 5.8 µM [falling, single point].

Regarding `N#CCCN1CCN(Cn2c3ccccc3c3ccccc32)CC1`, the cell number change worked out at 7.92%. Further, under setting [1], the AC50 was 29.1 µM [rising, single point].

Regarding `Cc1coc(C)c1C(=O)CC1(O)C(=O)N(Cc2ccccc2)c2ccccc21` (stereo unspecified), the cell number change was 64.3%. Moreover, under setting [2], the AC50 is 9.2 µM [rising, partial curve]. In addition, the AC50 under setting [1] is 29.1 µM [falling, single point].

On to `COc1ccc2c(c1)C(=O)[C@@H](O)[C@H](c1ccc(OC)c(Br)c1)O2`, for which the cell number change came out at 33.9%. The AC50 under setting [2] was 16.4 µM [rising, single point]. In addition, under setting [1], the AC50 is 16.4 µM [rising, partial curve].

Regarding `O=C(c1ccc(-c2cccc(Cl)c2Cl)o1)N1CCOCC1`, the cell number change is -25.1%. The AC50 under setting [2] was 0.0651 µM [falling, full curve, poor fit]. Further, the AC50 under setting [1] was 0.0731 µM [falling, full curve, poor fit].

Take `COc1cc(NC(=O)C2=CC(c3cccs3)=NS(=O)(=O)N2C)cc(OC)c1OC`: the cell number change is -30.5%. Further, the AC50 under setting [2] is 0.164 µM [falling, full curve, poor fit].

With `Cc1cc(C)cc(C(=O)OCC(=O)NC(=O)NC2CCCC2)c1`, the cell number change was -43.2%. Moreover, the AC50 under setting [2] was 23.1 µM [falling, single point].

As for `O=C(Cc1ccsc1)NCc1ccccc1F`, the cell number change is 21.1%. In addition, the AC50 under setting [1] was 29.1 µM [rising, single point].

Turning to `O=C(CSc1n[nH]c(-c2cccnc2)n1)Nc1ccccc1C(F)(F)F`, the cell number change was 20.6%. The AC50 under setting [1] is 29.1 µM [rising, single point].
